Paper doi:10.1101/2024.10.03.616509
No constants are given. Whether binding was seen depends on the method and setting. Some results given as binding are weak or reduced against the parent protein; the word gives no strength.

Experiments:
Assay in all cases: two-hybrid
Vps33a = target: T1, Vps33a (UniProt Q96AX1)
T1 sequence: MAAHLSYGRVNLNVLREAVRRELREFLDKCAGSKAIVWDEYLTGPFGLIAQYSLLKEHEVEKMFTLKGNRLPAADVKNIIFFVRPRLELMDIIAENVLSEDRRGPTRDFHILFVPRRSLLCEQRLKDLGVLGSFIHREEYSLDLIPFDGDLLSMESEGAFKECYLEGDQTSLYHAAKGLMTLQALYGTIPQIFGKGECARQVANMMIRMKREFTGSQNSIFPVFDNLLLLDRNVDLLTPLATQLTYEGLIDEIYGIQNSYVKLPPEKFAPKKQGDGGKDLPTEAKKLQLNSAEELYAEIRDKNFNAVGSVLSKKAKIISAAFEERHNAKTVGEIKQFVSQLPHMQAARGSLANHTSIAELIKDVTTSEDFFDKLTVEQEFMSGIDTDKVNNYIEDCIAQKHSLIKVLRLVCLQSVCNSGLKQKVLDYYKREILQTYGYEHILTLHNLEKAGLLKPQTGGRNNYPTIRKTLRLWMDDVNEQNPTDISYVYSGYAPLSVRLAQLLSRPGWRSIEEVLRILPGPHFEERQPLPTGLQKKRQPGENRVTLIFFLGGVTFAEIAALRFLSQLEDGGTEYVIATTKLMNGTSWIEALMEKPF

Vps39 = target: T2, Vps39 (UniProt Q96JC1)
T2 sequence: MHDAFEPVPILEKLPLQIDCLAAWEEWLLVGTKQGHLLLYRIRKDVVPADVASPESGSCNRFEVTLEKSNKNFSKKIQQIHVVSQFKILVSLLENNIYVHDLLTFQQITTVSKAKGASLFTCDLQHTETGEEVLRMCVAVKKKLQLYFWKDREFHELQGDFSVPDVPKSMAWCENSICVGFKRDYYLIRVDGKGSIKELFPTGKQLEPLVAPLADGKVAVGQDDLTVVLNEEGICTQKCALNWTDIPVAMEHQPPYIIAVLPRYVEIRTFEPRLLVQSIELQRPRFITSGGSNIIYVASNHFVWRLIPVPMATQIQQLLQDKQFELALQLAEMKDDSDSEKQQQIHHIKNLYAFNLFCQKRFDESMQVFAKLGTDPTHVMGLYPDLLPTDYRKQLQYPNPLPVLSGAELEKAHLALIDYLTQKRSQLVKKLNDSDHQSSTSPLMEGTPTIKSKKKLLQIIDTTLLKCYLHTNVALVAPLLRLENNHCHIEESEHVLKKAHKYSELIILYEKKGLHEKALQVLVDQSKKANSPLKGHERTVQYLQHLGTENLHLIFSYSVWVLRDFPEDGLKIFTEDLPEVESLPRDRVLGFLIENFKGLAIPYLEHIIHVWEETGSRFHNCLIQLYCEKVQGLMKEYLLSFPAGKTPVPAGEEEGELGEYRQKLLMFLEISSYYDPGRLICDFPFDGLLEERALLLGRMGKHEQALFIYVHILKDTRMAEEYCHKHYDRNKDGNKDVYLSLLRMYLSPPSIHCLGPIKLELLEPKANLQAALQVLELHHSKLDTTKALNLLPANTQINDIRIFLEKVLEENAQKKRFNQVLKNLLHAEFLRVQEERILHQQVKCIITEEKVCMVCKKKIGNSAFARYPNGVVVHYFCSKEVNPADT

Vps41 = target: T3, Vps41 (UniProt P49754)
T3 sequence: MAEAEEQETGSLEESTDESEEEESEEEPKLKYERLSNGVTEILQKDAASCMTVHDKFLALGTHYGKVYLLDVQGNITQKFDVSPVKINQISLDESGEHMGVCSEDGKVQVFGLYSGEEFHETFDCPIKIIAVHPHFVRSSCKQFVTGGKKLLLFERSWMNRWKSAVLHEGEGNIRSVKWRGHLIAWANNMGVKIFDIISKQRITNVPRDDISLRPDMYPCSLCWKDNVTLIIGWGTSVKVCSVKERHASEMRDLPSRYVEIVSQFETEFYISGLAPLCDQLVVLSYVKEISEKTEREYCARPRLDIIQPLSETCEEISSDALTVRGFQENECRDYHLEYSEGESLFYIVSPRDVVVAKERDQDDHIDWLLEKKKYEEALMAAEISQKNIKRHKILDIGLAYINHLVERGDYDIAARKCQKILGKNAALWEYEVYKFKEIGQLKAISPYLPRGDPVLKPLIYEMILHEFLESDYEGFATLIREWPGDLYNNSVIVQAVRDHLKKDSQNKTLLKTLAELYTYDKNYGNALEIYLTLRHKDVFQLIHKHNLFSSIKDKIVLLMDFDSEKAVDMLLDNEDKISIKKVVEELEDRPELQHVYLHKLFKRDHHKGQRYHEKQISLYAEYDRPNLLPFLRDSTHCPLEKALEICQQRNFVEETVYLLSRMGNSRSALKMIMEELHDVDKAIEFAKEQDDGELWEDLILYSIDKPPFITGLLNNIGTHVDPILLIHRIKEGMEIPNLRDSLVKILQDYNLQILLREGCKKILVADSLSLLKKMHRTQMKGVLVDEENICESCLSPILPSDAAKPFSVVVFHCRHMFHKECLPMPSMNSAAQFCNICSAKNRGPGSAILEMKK

Rab29 (Q67L) = target: T4, Rab29 (Q67L) (UniProt O14966)
T4 sequence: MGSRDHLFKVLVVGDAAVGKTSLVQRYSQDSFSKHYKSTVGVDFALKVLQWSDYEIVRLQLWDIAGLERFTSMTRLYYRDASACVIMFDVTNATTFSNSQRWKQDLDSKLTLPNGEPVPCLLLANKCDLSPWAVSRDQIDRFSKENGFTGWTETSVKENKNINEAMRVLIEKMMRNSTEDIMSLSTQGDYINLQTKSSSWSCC

Measured: binding

B1: TECPR2 (WT) (protein, UniProt O15040 1-1411)
chain: MASISEPVTFREFCPLYYLLNAIPTKIQKGFRSIVVYLTALDTNGDYIAVGSSIGMLYLYCRHLNQMRKYNFEGKTESITVVKLLSCFDDLVAAGTASGRVAVFQLVSSLPGRNKQLRRFDVTGIHKNSITALAWSPNGMKLFSGDDKGKIVYSSLDLDQGLCNSQLVLEEPSSIVQLDYSQKVLLVSTLQRSLLFYTEEKSVRQIGTQPRKSTGKFGACFIPGLCKQSDLTLYASRPGLRLWKADVHGTVQATFILKDAFAGGVKPFELHPRLESPNSGSCSLPERHLGLVSCFFQEGWVLSWNEYSIYLLDTVNQATVAGLEGSGDIVSVSCTENEIFFLKGDRNIIRISSRPEGLTSTVRDGLEMSGCSERVHVQQAEKLPGATVSETRLRGSSMASSVASEPRSRSSSLNSTDSGSGLLPPGLQATPELGKGSQPLSQRFNAISSEDFDQELVVKPIKVKRKKKKKKTEGGSRSTCHSSLESTPCSEFPGDSPQSLNTDLLSMTSSVLGSSVDQLSAESPDQESSFNGEVNGVPQENTDPETFNVLEVSGSMPDSLAEEDDIRTEMPHCHHAHGRELLNGAREDVGGSDVTGLGDEPCPADDGPNSTQLPFQEQDSSPGAHDGEDIQPIGPQSTFCEVPLLNSLTVPSSLSWAPSAEQWLPGTRADEGSPVEPSQEQDILTSMEASGHLSTNLWHAVTDDDTGQKEIPISERVLGSVGGQLTPVSALAASTHKPWLEQPPRDQTLTSSDEEDIYAHGLPSSSSETSVTELGPSCSQQDLSRLGAEDAGLLKPDQFAESWMGYSGPGYGILSLVVSEKYIWCLDYKGGLFCSALPGAGLRWQKFEDAVQQVAVSPSGALLWKIEQKSNRAFACGKVTIKGKRHWYEALPQAVFVALSDDTAWIIRTSGDLYLQTGLSVDRPCARAVKVDCPYPLSQITARNNVVWALTEQRALLYREGVSSFCPEGEQWKCDIVSERQALEPVCITLGDQQTLWALDIHGNLWFRTGIISKKPQGDDDHWWQVSITDYVVFDQCSLFQTIIHATHSVATAAQAPVEKVADKLRMAFWSQQLQCQPSLLGVNNSGVWISSGKNEFHVAKGSLIGTYWNHVVPRGTASATKWAFVLASAAPTKEGSFLWLCQSSKDLCSVSAQSAQSRPSTVQLPPEAEMRAYAACQDALWALDSLGQVFIRTLSKSCPTGMHWTRLDLSQLGAVKLTSLACGNQHIWACDSRGGVYFRVGTQPLNPSLMLPAWIMIEPPVQPAGVSLVSVHSSPNDQMLWVLDSRWNVHVRTGITEEMPVGTAWEHVPGLQACQLALSTRTVWARCPNGDLARRYGVTDKNPAGDYWKKIPGSVSCFTVTASDELWAVGPPGYLLQRLTKTFSHSHGTQKSSQAAMPHPEDLEDEWEVI
binds: Vps33a | Vps39 | Vps41 | Rab29 (Q67L)
